Results are given in words; binding and its absence hold for the method and conditions named. In cells and extracts the contact can be indirect. Some entries that bind do so weakly or less than the wild type.
Biological target: TAP-PS2 (human presenilin 2 with N-terminal Protein G-TEV-SBP tandem affinity purification tag) (human) (UniProt P49810)
Test: pull-down; SBP eluate fractions of the multistep TAP purifications of PS1- and PS2-containing γ-secretase complexes from HEK293F, Western blot; loading normalised on Pen-2 and nicastrin

binding: binds
B1: signal peptide peptidase (SPP) (enzyme, UniProt Q8TCT9 1-377)
chain: MDSALSDPHNGSAEAGGPTNSTTRPPSTPEGIALAYGSLLLMALLPIFFGALRSVRCARGKNASDMPETITSRDAARFPIIASCTLLGLYLFFKIFSQEYINLLLSMYFFVLGILALSHTISPFMNKFFPASFPNRQYQLLFTQGSGENKEEIINYEFDTKDLVCLGLSSIVGVWYLLRKHWIANNLFGLAFSLNGVELLHLNNVSTGCILLGGLFIYDVFWVFGTNVMVTVAKSFEAPIKLVFPQDLLEKGLEANNFAMLGLGDVVIPGIFIALLLRFDISLKKNTHTYFYTSFAAYIFGLGLTIFIMHIFKHAQPALLYLVPACIGFPVLVALAKGEVTEMFSYEESNPKDPAAVTESKEGTEASASKGLEKKEK

From publication PMC3663554
